Experimental data taken from PMC3554521.

Protein sequences, listed by entry. Tags and fused reporters are not part of them. Lines headed by an entry give the natural chain unless they say otherwise; changes in a name come on top.
UniProt P10629: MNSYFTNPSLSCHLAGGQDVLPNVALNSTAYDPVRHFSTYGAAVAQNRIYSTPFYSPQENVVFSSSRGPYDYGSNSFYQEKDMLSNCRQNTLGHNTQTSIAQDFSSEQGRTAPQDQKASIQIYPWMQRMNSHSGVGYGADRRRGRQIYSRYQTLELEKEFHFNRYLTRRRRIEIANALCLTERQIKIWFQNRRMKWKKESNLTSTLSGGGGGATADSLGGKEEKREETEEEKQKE

Molecular target: T1, Pbx3 (UniProt O35317)
T1 sequence: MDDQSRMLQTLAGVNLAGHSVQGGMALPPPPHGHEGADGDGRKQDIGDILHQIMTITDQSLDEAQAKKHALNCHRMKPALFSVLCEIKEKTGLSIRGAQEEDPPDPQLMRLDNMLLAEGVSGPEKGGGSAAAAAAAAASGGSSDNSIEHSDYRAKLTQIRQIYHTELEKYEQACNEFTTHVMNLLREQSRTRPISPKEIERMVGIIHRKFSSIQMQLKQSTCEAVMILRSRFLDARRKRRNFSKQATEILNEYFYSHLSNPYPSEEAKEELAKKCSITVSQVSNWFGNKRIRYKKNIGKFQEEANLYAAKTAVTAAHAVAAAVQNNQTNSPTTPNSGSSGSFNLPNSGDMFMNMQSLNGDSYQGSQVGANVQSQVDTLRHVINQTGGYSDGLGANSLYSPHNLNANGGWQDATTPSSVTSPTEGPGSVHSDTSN
Test: native gel or EMSA; gel mobility shift: recombinant Hoxc6 derivatives and Pbx3 together on IRDye-800 labelled DNA probes (Foxp1/hs1149 site, Fkh250con*); cooperative binding on DNA; 50 mM Tris-HCl pH 7.5, 250 mM NaCl, 5 mM MgCl2, 20% glycerol, 2.5 mM DTT, 2.5 mM EDTA, poly dIdC, 0.1% BSA, 20 min at room temperature; 0.5-2 pmol protein per reaction; both purified

Hoxc6NΔ91+IM (from UniProt P10629) (domain or fragment)
binding: no binding

No constants are given. Whether binding was seen depends on the method and setting.
